# Some of the results follow.
# Assays:
# Test in all cases: glycan array binding signal (z-score within array); higher = stronger binding
# Conditions in all cases: glycan notation: IUPAC condensed, linker removed
# [1] = molecular target: GlcNAc(b1-3)Gal(b1-4)GlcNAc(b1-3)GalNAc
# Summary of the method: (§1)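 From the Consortium for Functional Glycomics database, 3228 arrays were curated, keeping only those whose protein sequence was available. Binding is given as a within-array Z-score averaged across arrays sharing a protein sequence and across linkers. Negative Z-scores can be read as non-binding.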
# [2] = molecular target: GlcNAc(b1-3)Gal(b1-4)GlcNAc(b1-3)[GlcNAc(b1-3)Gal(b1-4)GlcNAc(b1-3)]GalNAc
# Summary of the method: as §1
# [3] = molecular target: GlcNAc(b1-3)Gal(b1-4)GlcNAc(b1-6)[Gal(b1-3)]GalNAc
# Summary of the method: as §1
# [4] = molecular target: GlcNAc(b1-3)Gal(b1-4)GlcNAc(b1-6)[GlcNAc(b1-3)Gal(b1-3)]GalNAc
# Summary of the method: as §1
# [5] = molecular target: GlcNAc(b1-3)Gal(b1-4)GlcNAc(b1-6)[GlcNAc(b1-3)]Gal(b1-4)GlcNAc
# Summary of the method: as §1
# [6] = molecular target: GlcNAc(b1-3)GalNAc
# Summary of the method: as §1
# [7] = molecular target: GlcNAc(b1-3)Man
# Summary of the method: as §1
# [8] = molecular target: GlcNAc(b1-3)[GlcNAc(b1-4)][GlcNAc(b1-6)]GlcNAc
# Summary of the method: as §1
# [9] = molecular target: GlcNAc(b1-3)[GlcNAc(b1-6)]Gal(b1-4)GlcNAc
# Summary of the method: as §1
# [10] = molecular target: GlcNAc(b1-3)[GlcNAc(b1-6)]GalNAc
# Summary of the method: as §1
# [11] = molecular target: GlcNAc(b1-4)Gal(b1-4)GlcNAc
# Summary of the method: as §1
# [12] = molecular target: GlcNAc(b1-4)GlcNAc
# Summary of the method: as §1
# [13] = molecular target: GlcNAc(b1-4)GlcNAc(b1-4)GlcNAc
# Summary of the method: as §1
# [14] = molecular target: GlcNAc(b1-4)GlcNAc(b1-4)GlcNAc(b1-4)GlcNAc(b1-4)GlcNAc
# Summary of the method: as §1
# [15] = molecular target: GlcNAc(b1-4)GlcNAc(b1-4)GlcNAc(b1-4)GlcNAc(b1-4)GlcNAc(b1-4)GlcNAc
# Summary of the method: as §1
# [16] = molecular target: GlcNAc(b1-4)[GlcNAc(b1-6)]GalNAc
# Summary of the method: as §1
# [17] = molecular target: GlcNAc(b1-6)Gal(b1-4)GlcNAc
# Summary of the method: as §1
# [18] = molecular target: GlcNAc(b1-6)GalNAc
# Summary of the method: as §1
# [19] = molecular target: GlcNAc6S(b1-3)Gal(b1-4)GlcNAc
# Summary of the method: as §1
# [20] = molecular target: Kdn(a2-3)Gal(b1-3)GalNAc
# Summary of the method: as §1
# [21] = molecular target: Kdn(a2-3)Gal(b1-3)GlcNAc
# Summary of the method: as §1
# [22] = molecular target: Kdn(a2-3)Gal(b1-4)Glc
# Summary of the method: as §1
# [23] = molecular target: Kdn(a2-3)Gal(b1-4)GlcNAc
# Summary of the method: as §1
# [24] = molecular target: Kdn(a2-3)Gal(b1-4)[Fuc(a1-3)]GlcNAc
# Summary of the method: as §1
# [25] = molecular target: Kdn(a2-6)Gal(b1-4)GlcNAc
# Summary of the method: as §1
# [26] = molecular target: Man(a1-2)Man(a1-2)Man(a1-3)Man
# Summary of the method: as §1
# [27] = molecular target: Man(a1-2)Man(a1-2)Man(a1-6)[Man(a1-3)]Man
# Summary of the method: as §1
# [28] = molecular target: Man(a1-2)Man(a1-3)Man
# Summary of the method: as §1
# [29] = molecular target: Man(a1-2)Man(a1-3)[Man(a1-2)Man(a1-6)]Man
# Summary of the method: as §1
# [30] = molecular target: Man(a1-2)Man(a1-3)[Man(a1-2)Man(a1-6)]Man(a1-6)[Man(a1-2)Man(a1-2)Man(a1-3)]Man
# Summary of the method: as §1
# [31] = molecular target: Man(a1-2)Man(a1-3)[Man(a1-2)Man(a1-6)]Man(a1-6)[Man(a1-2)Man(a1-2)Man(a1-3)]Man(b1-4)GlcNAc(b1-4)GlcNAc
# Summary of the method: as §1
# [32] = molecular target: Man(a1-2)Man(a1-3)[Man(a1-6)]Man(a1-6)[Man(a1-2)Man(a1-3)]Man(b1-4)GlcNAc(b1-4)GlcNAc
# Summary of the method: as §1
# [33] = molecular target: Man(a1-2)Man(a1-6)[Man(a1-3)]Man(a1-6)[Man(a1-2)Man(a1-2)Man(a1-3)]Man
# Summary of the method: as §1
# [34] = molecular target: Man(a1-2)Man(a1-6)[Man(a1-3)]Man(a1-6)[Man(a1-2)Man(a1-2)Man(a1-3)]Man(b1-4)GlcNAc(b1-4)GlcNAc
# Summary of the method: as §1
# [35] = molecular target: Man(a1-3)[Man(a1-6)]Man
# Summary of the method: as §1
# [36] = molecular target: Man(a1-3)[Man(a1-6)]Man(a1-6)[Man(a1-2)Man(a1-3)]Man(b1-4)GlcNAc(b1-4)GlcNAc
# Summary of the method: as §1
# [37] = molecular target: Man(a1-3)[Man(a1-6)]Man(a1-6)[Man(a1-3)]Man
# Summary of the method: as §1
# [38] = molecular target: Man(a1-3)[Man(a1-6)]Man(a1-6)[Man(a1-3)]Man(b1-4)GlcNAc(b1-4)GlcNAc
# Summary of the method: as §1
# [39] = molecular target: Man(a1-3)[Man(a1-6)]Man(b1-4)GlcNAc(b1-4)GlcNAc
# Summary of the method: as §1
# [40] = molecular target: Man(a1-3)[Man(a1-6)]Man(b1-4)GlcNAc(b1-4)[Fuc(a1-6)]GlcNAc
# Summary of the method: as §1
# [41] = molecular target: Man(a1-6)Man
# Summary of the method: as §1
# [42] = molecular target: Man(b1-4)GlcNAc
# Summary of the method: as §1
# [43] = molecular target: MurNAc(b1-4)GlcNAc
# Summary of the method: as §1
# [44] = molecular target: Neu5Ac(a2-3)Gal
# Summary of the method: as §1
# [45] = molecular target: Neu5Ac(a2-3)Gal(b1-3)GalNAc
# Summary of the method: as §1
# [46] = molecular target: Neu5Ac(a2-3)Gal(b1-3)GalNAc(b1-3)Gal(a1-4)Gal(b1-4)Glc
# Summary of the method: as §1
# [47] = molecular target: Neu5Ac(a2-3)Gal(b1-3)GalNAc(b1-4)[Neu5Ac(a2-3)]Gal(b1-4)Glc
# Summary of the method: as §1
# [48] = molecular target: Neu5Ac(a2-3)Gal(b1-3)GalNAc(b1-4)[Neu5Ac(a2-8)Neu5Ac(a2-3)]Gal(b1-4)Glc
# Summary of the method: as §1
# [49] = molecular target: Neu5Ac(a2-3)Gal(b1-3)GalNAc6S
# Summary of the method: as §1
# [50] = molecular target: Neu5Ac(a2-3)Gal(b1-3)GlcNAc
# Summary of the method: as §1
# [51] = molecular target: Neu5Ac(a2-3)Gal(b1-3)GlcNAc(b1-2)Man
# Summary of the method: as §1
# [52] = molecular target: Neu5Ac(a2-3)Gal(b1-3)GlcNAc(b1-2)Man(a1-3)[GlcNAc(b1-4)][Neu5Ac(a2-3)Gal(b1-3)GlcNAc(b1-2)Man(a1-6)]Man(b1-4)GlcNAc(b1-4)GlcNAc
# Summary of the method: as §1
# [53] = molecular target: Neu5Ac(a2-3)Gal(b1-3)GlcNAc(b1-2)Man(a1-3)[Neu5Ac(a2-3)Gal(b1-3)GlcNAc(b1-2)Man(a1-6)]Man(b1-4)GlcNAc(b1-4)GlcNAc
# Summary of the method: as §1
# [54] = molecular target: Neu5Ac(a2-3)Gal(b1-3)GlcNAc(b1-3)Gal(b1-3)GlcNAc
# Summary of the method: as §1
# [55] = molecular target: Neu5Ac(a2-3)Gal(b1-3)GlcNAc(b1-3)Gal(b1-4)GlcNAc
# Summary of the method: as §1
# [56] = molecular target: Neu5Ac(a2-3)Gal(b1-3)GlcNAc(b1-3)GalNAc
# Summary of the method: as §1
# [57] = molecular target: Neu5Ac(a2-3)Gal(b1-3)GlcNAc(b1-4)Gal(b1-4)Glc
# Summary of the method: as §1
# [58] = molecular target: Neu5Ac(a2-3)Gal(b1-3)GlcNAc(b1-6)GalNAc
# Summary of the method: as §1
# [59] = molecular target: Neu5Ac(a2-3)Gal(b1-3)GlcNAc6S
# Summary of the method: as §1
# [60] = molecular target: Neu5Ac(a2-3)Gal(b1-3)[Fuc(a1-4)]GlcNAc
# Summary of the method: as §1
binder,measurement,setting,value
Blon2355mut (Bifidobacterium longum) (protein) MVQEPTLEWHVIPEPTNVEPLVGTCSLPLSGTVVEQRGADDAEAVFARQLVDDIKRVCGGRWQVASGEVQREVTLRTSPSLDDWSYVLEVSPDGVVITGSGFEGVRDGVQTLRQIIRQIGLTIPCMVIRDRPAFSTRGYYLDVTRGRVPSMAWLKSWVDRLCFYKYNQFQLYIEHTFQFNGLSEVWRGADPLTSSDILELDSYCAARGIELVPSVSTFGHHYTALRTRQLRDLGEFPEDADRPFSLIERMTHHTLNITDERSYEFSTSLIDELMPLFRSRKFNICANETFDLGKGRSKQESAKRGVGAMYADFVERLCRHVDDRGHDVMVWADVALEHPEIIDTLPKNITWLNWQYEPNVDDGTTAALADAGATQMVCPAVWCWNALIPRIDDAWNNITRMARHGRAHDVSGMLVTDWGDFGHVNDPRMSVPGMIFGAQQSWNPDAELSEVDMLSRISTIEYGDHTGSVVGALRGASAKGGFSWSDLVTYLELDDGRGGCNTEIVRVMGCLEAYRNDLPQSGQARLADARVSMLRTLRDSILAGRELNGKLDDAAKDITQLLRVAGDPSSAAVWSLAIDGQRLLNRVGLALLAAHGVVRQDEAGIDAAKLADELECWTEQYSRLWHEVSRQSELARIQHVVWRAADVLRSI,glycan array binding signal (z-score),[1],2.04
same,glycan array binding signal (z-score),[2],3.84
same,glycan array binding signal (z-score),[3],1.67
same,glycan array binding signal (z-score),[4],-0.208
same,glycan array binding signal (z-score),[5],-0.18
same,glycan array binding signal (z-score),[6],-0.629
same,glycan array binding signal (z-score),[7],-0.814
same,glycan array binding signal (z-score),[8],-0.175
same,glycan array binding signal (z-score),[9],-0.106
same,glycan array binding signal (z-score),[10],-0.847
same,glycan array binding signal (z-score),[11],-0.202
same,glycan array binding signal (z-score),[12],0.047
same,glycan array binding signal (z-score),[13],-0.51
same,glycan array binding signal (z-score),[14],-0.769
same,glycan array binding signal (z-score),[15],0.29
same,glycan array binding signal (z-score),[16],0.011
same,glycan array binding signal (z-score),[17],1.29
same,glycan array binding signal (z-score),[18],-0.103
same,glycan array binding signal (z-score),[19],-0.49
same,glycan array binding signal (z-score),[20],1.24
same,glycan array binding signal (z-score),[21],1.19
same,glycan array binding signal (z-score),[22],-0.358
same,glycan array binding signal (z-score),[23],-0.044
same,glycan array binding signal (z-score),[24],-0.483
same,glycan array binding signal (z-score),[25],1.48
same,glycan array binding signal (z-score),[26],-0.041
same,glycan array binding signal (z-score),[27],-0.483
same,glycan array binding signal (z-score),[28],-1.18
same,glycan array binding signal (z-score),[29],-0.379
same,glycan array binding signal (z-score),[30],-0.533
same,glycan array binding signal (z-score),[31],-0.539
same,glycan array binding signal (z-score),[32],-0.875
same,glycan array binding signal (z-score),[33],-1.64
same,glycan array binding signal (z-score),[34],0.149
same,glycan array binding signal (z-score),[35],-0.703
same,glycan array binding signal (z-score),[36],0.814
same,glycan array binding signal (z-score),[37],1.3
same,glycan array binding signal (z-score),[38],-0.833
same,glycan array binding signal (z-score),[39],-0.047
same,glycan array binding signal (z-score),[40],-0.822
same,glycan array binding signal (z-score),[41],-0.09
same,glycan array binding signal (z-score),[42],0.643
same,glycan array binding signal (z-score),[43],-0.276
same,glycan array binding signal (z-score),[44],-1.03
same,glycan array binding signal (z-score),[45],-0.401
same,glycan array binding signal (z-score),[46],-0.213
same,glycan array binding signal (z-score),[47],0.121
same,glycan array binding signal (z-score),[48],-0.844
same,glycan array binding signal (z-score),[49],-0.09
same,glycan array binding signal (z-score),[50],-0.842
same,glycan array binding signal (z-score),[51],-0.17
same,glycan array binding signal (z-score),[52],-0.698
same,glycan array binding signal (z-score),[53],-0.203
same,glycan array binding signal (z-score),[54],-0.135
same,glycan array binding signal (z-score),[55],-0.791
same,glycan array binding signal (z-score),[56],-0.741
same,glycan array binding signal (z-score),[57],-1.02
same,glycan array binding signal (z-score),[58],1.99
same,glycan array binding signal (z-score),[59],0.608
same,glycan array binding signal (z-score),[60],-0.618

# Quoted at random: 4 entries already listed.
binder,measurement,setting,value
Blon2355mut (Bifidobacterium longum) (protein) MVQEPTLEWHVIPEPTNVEPLVGTCSLPLSGTVVEQRGADDAEAVFARQLVDDIKRVCGGRWQVASGEVQREVTLRTSPSLDDWSYVLEVSPDGVVITGSGFEGVRDGVQTLRQIIRQIGLTIPCMVIRDRPAFSTRGYYLDVTRGRVPSMAWLKSWVDRLCFYKYNQFQLYIEHTFQFNGLSEVWRGADPLTSSDILELDSYCAARGIELVPSVSTFGHHYTALRTRQLRDLGEFPEDADRPFSLIERMTHHTLNITDERSYEFSTSLIDELMPLFRSRKFNICANETFDLGKGRSKQESAKRGVGAMYADFVERLCRHVDDRGHDVMVWADVALEHPEIIDTLPKNITWLNWQYEPNVDDGTTAALADAGATQMVCPAVWCWNALIPRIDDAWNNITRMARHGRAHDVSGMLVTDWGDFGHVNDPRMSVPGMIFGAQQSWNPDAELSEVDMLSRISTIEYGDHTGSVVGALRGASAKGGFSWSDLVTYLELDDGRGGCNTEIVRVMGCLEAYRNDLPQSGQARLADARVSMLRTLRDSILAGRELNGKLDDAAKDITQLLRVAGDPSSAAVWSLAIDGQRLLNRVGLALLAAHGVVRQDEAGIDAAKLADELECWTEQYSRLWHEVSRQSELARIQHVVWRAADVLRSI,glycan array binding signal (z-score),[57],-1.02
same,glycan array binding signal (z-score),[18],-0.103
same,glycan array binding signal (z-score),[48],-0.844
same,glycan array binding signal (z-score),[35],-0.703

# From the supplement of paper PMC8728848
